# Laboratory results reported in PMC8384837.
# Positions count from the first letter of the chain named. The list shows a part of the results. For part of these data: At the low end of the ranking, values are background and their order means little. For part of these data: The source does not settle which construct or isoform was used.
# What was measured:
# Conditions in all cases: yeast three-hybrid, YBZ-1, SC-Leu-His + 0.5 mM 3-AT, 4 days
# [1] = biological target: T1, PUM1 PUF domain R1-QFR R2-VFQ R7-NPG S863Q + R864F + Q867R + N899V + Y900F + S1079N + N1080P + E1083G (UniProt Q14671)
# T1 sequence: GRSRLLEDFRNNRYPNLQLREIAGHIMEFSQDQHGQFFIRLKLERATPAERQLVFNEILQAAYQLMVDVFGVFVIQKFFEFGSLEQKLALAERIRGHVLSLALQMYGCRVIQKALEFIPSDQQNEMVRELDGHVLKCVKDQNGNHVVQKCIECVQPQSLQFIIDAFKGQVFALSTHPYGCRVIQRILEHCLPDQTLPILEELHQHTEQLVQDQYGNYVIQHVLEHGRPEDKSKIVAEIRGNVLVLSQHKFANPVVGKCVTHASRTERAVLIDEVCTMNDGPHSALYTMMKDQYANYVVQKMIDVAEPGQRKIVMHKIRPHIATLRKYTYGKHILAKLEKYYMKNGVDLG
# [2] = biological target: T2, PUM1 PUF domain R3-THE R4-TFR C935T + R936H + Q939E + N971T + H972F + Q975R (UniProt Q14671)
# T2 sequence: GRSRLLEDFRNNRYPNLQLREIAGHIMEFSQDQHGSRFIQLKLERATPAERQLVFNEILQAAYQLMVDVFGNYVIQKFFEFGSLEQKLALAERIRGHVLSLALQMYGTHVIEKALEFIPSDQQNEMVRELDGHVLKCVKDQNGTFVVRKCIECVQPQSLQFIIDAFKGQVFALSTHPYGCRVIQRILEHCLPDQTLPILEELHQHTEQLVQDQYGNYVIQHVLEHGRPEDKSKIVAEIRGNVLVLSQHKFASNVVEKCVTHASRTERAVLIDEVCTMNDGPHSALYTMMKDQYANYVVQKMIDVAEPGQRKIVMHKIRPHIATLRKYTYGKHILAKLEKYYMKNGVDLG
# [3] = biological target: T3, PUM1 PUF domain R2-VFQ R3-THE R4-TFR N899V + Y900F + C935T + R936H + Q939E + N971T + H972F + Q975R (UniProt Q14671)
# T3 sequence: T2 sequence with N72V, Y73F
# [4] = biological target: T4, PUM1 PUF domain R6-SWD R7-NPG N1043S + Y1044W + Q1047D + S1079N + N1080P + E1083G (Homo sapiens) (UniProt Q14671)
# T4 sequence: T1 sequence with Q36S, F37R, R40Q, V72N, F73Y, N216S, Y217W, Q220D
# [5] = biological target: T5, PUM1 PUF domain R5-PHQ R6-SWD C1007P + R1008H + N1043S + Y1044W + Q1047D (UniProt Q14671)
# T5 sequence: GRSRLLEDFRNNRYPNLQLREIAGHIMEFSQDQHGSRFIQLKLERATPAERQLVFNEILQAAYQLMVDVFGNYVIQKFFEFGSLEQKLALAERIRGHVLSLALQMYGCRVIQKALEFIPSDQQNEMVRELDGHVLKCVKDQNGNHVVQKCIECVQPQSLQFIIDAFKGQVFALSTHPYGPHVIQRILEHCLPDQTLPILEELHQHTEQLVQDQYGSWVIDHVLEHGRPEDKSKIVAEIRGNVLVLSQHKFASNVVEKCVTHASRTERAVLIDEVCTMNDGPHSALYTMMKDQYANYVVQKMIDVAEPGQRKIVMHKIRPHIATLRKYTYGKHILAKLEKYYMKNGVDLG
# [6] = biological target: T6, PUM1 PUF domain R6-SWD R7-NPG N1043S + Y1044W + Q1047D + S1079N + N1080P + E1083G (UniProt Q14671)
# T6 sequence: T5 sequence with P180C, H181R, S252N, N253P, E256G
sequence,measurement,setting,value
GGCUAGAACUAGUGGAUCCCCCGGCGCCCGGCGGCUCGAGCCCGGGUAAGCUGACCUCGUCUGCAUGCCGCCGGGCGCCAUGCCUGCAGGUCGACUCUAGAAAACAUG,binding signal (log2 enrichment (interaction score)),[1],-4.99
same,binding signal (log2 enrichment (interaction score)),[2],< -6.95
GGCUAGAACUAGUGGAUCCCCCGGCGCCCGGCGGCUCGAGCCCGGGUAAGUCUGCUAAGUCUGCAUGCCGCCGGGCGCCAUGCCUGCAGGUCGACUCUAGAAAACAUG,binding signal (log2 enrichment (interaction score)),[1],-4.77
same,binding signal (log2 enrichment (interaction score)),[3],-5.15
same,binding signal (log2 enrichment (interaction score)),[4],-0.51
GGCUAGAACUAGUGGAUCCCCCGGCGCCCGGCGGCUCGAGCCCGGGUAAGUGGAAGCAGUCUGCAUGCCGCCGGGCGCCAUGCCUGCAGGUCGACUCUAGAAAACAUG,binding signal (log2 enrichment (interaction score)),[1],-5.36
same,binding signal (log2 enrichment (interaction score)),[3],-5.88
same,binding signal (log2 enrichment (interaction score)),[4],-0.86
GGCUAGAACUAGUGGAUCCCCCGGCGCCCGGCGGCUCGAGCCCGGGUAAGUUCAUGAAGUCUGCAUGCCGCCGGGCGCCAUGCCUGCAGGUCGACUCUAGAAAACAUG,binding signal (log2 enrichment (interaction score)),[1],-5.06
same,binding signal (log2 enrichment (interaction score)),[2],-6.42
GGCUAGAACUAGUGGAUCCCCCGGCGCCCGGCGGCUCGAGCCCGGGUAAGUGGACGGAGUCUGCAUGCCGCCGGGCGCCAUGCCUGCAGGUCGACUCUAGAAAACAUG,binding signal (log2 enrichment (interaction score)),[1],-4.96
same,binding signal (log2 enrichment (interaction score)),[2],-5.34
GGCUAGAACUAGUGGAUCCCCCGGCGCCCGGCGGCUCGAGCCCGGGUAAGUUAAAAUCGUCUGCAUGCCGCCGGGCGCCAUGCCUGCAGGUCGACUCUAGAAAACAUG,binding signal (log2 enrichment (interaction score)),[1],-6.59
same,binding signal (log2 enrichment (interaction score)),[3],-5.88
same,binding signal (log2 enrichment (interaction score)),[5],-8.59
same,binding signal (log2 enrichment (interaction score)),[6],-2.32
GGCUAGAACUAGUGGAUCCCCCGGCGCCCGGCGGCUCGAGCCCGGGUAAGCUCAAGUGGUCUGCAUGCCGCCGGGCGCCAUGCCUGCAGGUCGACUCUAGAAAACAUG,binding signal (log2 enrichment (interaction score)),[1],-4.92
same,binding signal (log2 enrichment (interaction score)),[2],-7.09
GGCUAGAACUAGUGGAUCCCCCGGCGCCCGGCGGCUCGAGCCCGGGUAAGUGCUCCUCGUCUGCAUGCCGCCGGGCGCCAUGCCUGCAGGUCGACUCUAGAAAACAUG,binding signal (log2 enrichment (interaction score)),[1],-5.84
same,binding signal (log2 enrichment (interaction score)),[2],-6.97
GGCUAGAACUAGUGGAUCCCCCGGCGCCCGGCGGCUCGAGCCCGGGUAAGCUCAAGAAGUCUGCAUGCCGCCGGGCGCCAUGCCUGCAGGUCGACUCUAGAAAACAUG,binding signal (log2 enrichment (interaction score)),[1],< -5.42
same,binding signal (log2 enrichment (interaction score)),[2],-8.03
GGCUAGAACUAGUGGAUCCCCCGGCGCCCGGCGGCUCGAGCCCGGGUAAGCGUUAGUUGUCUGCAUGCCGCCGGGCGCCAUGCCUGCAGGUCGACUCUAGAAAACAUG,binding signal (log2 enrichment (interaction score)),[1],-6.25
same,binding signal (log2 enrichment (interaction score)),[2],-7.07
GGCUAGAACUAGUGGAUCCCCCGGCGCCCGGCGGCUCGAGCCCGGGUAAGGUAAGUACGUCUGCAUGCCGCCGGGCGCCAUGCCUGCAGGUCGACUCUAGAAAACAUG,binding signal (log2 enrichment (interaction score)),[1],< -6.72
same,binding signal (log2 enrichment (interaction score)),[3],-5.06
same,binding signal (log2 enrichment (interaction score)),[4],-0.53
GGCUAGAACUAGUGGAUCCCCCGGCGCCCGGCGGCUCGAGCCCGGGUAAGUUAAAGAAGUCUGCAUGCCGCCGGGCGCCAUGCCUGCAGGUCGACUCUAGAAAACAUG,binding signal (log2 enrichment (interaction score)),[1],-5.83
same,binding signal (log2 enrichment (interaction score)),[3],-5.61
same,binding signal (log2 enrichment (interaction score)),[4],< -0.81
GGCUAGAACUAGUGGAUCCCCCGGCGCCCGGCGGCUCGAGCCCGGGUAAGCGGACGAAGUCUGCAUGCCGCCGGGCGCCAUGCCUGCAGGUCGACUCUAGAAAACAUG,binding signal (log2 enrichment (interaction score)),[1],-4.81
same,binding signal (log2 enrichment (interaction score)),[2],< -6.96
GGCUAGAACUAGUGGAUCCCCCGGCGCCCGGCGGCUCGAGCCCGGGUAAGGUUAAAGCGUCUGCAUGCCGCCGGGCGCCAUGCCUGCAGGUCGACUCUAGAAAACAUG,binding signal (log2 enrichment (interaction score)),[1],-4.84
same,binding signal (log2 enrichment (interaction score)),[3],-5.35
same,binding signal (log2 enrichment (interaction score)),[4],-1.1
GGCUAGAACUAGUGGAUCCCCCGGCGCCCGGCGGCUCGAGCCCGGGUAAGUUCAAGGAGUCUGCAUGCCGCCGGGCGCCAUGCCUGCAGGUCGACUCUAGAAAACAUG,binding signal (log2 enrichment (interaction score)),[1],< -5.99
same,binding signal (log2 enrichment (interaction score)),[2],< -7.73
GGCUAGAACUAGUGGAUCCCCCGGCGCCCGGCGGCUCGAGCCCGGGUAAGGCGACAAAGUCUGCAUGCCGCCGGGCGCCAUGCCUGCAGGUCGACUCUAGAAAACAUG,binding signal (log2 enrichment (interaction score)),[1],-4.87
same,binding signal (log2 enrichment (interaction score)),[2],-6.78
GGCUAGAACUAGUGGAUCCCCCGGCGCCCGGCGGCUCGAGCCCGGGUAAGUUUGCACAGUCUGCAUGCCGCCGGGCGCCAUGCCUGCAGGUCGACUCUAGAAAACAUG,binding signal (log2 enrichment (interaction score)),[1],< -6.27
same,binding signal (log2 enrichment (interaction score)),[2],-7.72
GGCUAGAACUAGUGGAUCCCCCGGCGCCCGGCGGCUCGAGCCCGGGUAAGUAGGAAAAGUCUGCAUGCCGCCGGGCGCCAUGCCUGCAGGUCGACUCUAGAAAACAUG,binding signal (log2 enrichment (interaction score)),[1],-5.45
same,binding signal (log2 enrichment (interaction score)),[3],-5.74
same,binding signal (log2 enrichment (interaction score)),[5],< -6.93
GGCUAGAACUAGUGGAUCCCCCGGCGCCCGGCGGCUCGAGCCCGGGUAAGAUUCCAUAGUCUGCAUGCCGCCGGGCGCCAUGCCUGCAGGUCGACUCUAGAAAACAUG,binding signal (log2 enrichment (interaction score)),[1],-6.3
same,binding signal (log2 enrichment (interaction score)),[2],-7.71
GGCUAGAACUAGUGGAUCCCCCGGCGCCCGGCGGCUCGAGCCCGGGUAAGUGGUACUAGUCUGCAUGCCGCCGGGCGCCAUGCCUGCAGGUCGACUCUAGAAAACAUG,binding signal (log2 enrichment (interaction score)),[1],-4.63
same,binding signal (log2 enrichment (interaction score)),[2],< -7.03
GGCUAGAACUAGUGGAUCCCCCGGCGCCCGGCGGCUCGAGCCCGGGUAAGGUUAAGUUGUCUGCAUGCCGCCGGGCGCCAUGCCUGCAGGUCGACUCUAGAAAACAUG,binding signal (log2 enrichment (interaction score)),[1],< -6.02
same,binding signal (log2 enrichment (interaction score)),[3],-4.84
same,binding signal (log2 enrichment (interaction score)),[4],-0.93
GGCUAGAACUAGUGGAUCCCCCGGCGCCCGGCGGCUCGAGCCCGGGUAAGUAGAACGCGUCUGCAUGCCGCCGGGCGCCAUGCCUGCAGGUCGACUCUAGAAAACAUG,binding signal (log2 enrichment (interaction score)),[1],< -5.77
same,binding signal (log2 enrichment (interaction score)),[3],-5.77
same,binding signal (log2 enrichment (interaction score)),[4],-0.87
GGCUAGAACUAGUGGAUCCCCCGGCGCCCGGCGGCUCGAGCCCGGGUAAGUGGAAGAAGUCUGCAUGCCGCCGGGCGCCAUGCCUGCAGGUCGACUCUAGAAAACAUG,binding signal (log2 enrichment (interaction score)),[1],-4.99
same,binding signal (log2 enrichment (interaction score)),[2],-6.33
same,binding signal (log2 enrichment (interaction score)),[5],< -8.3

# 4 neighbouring records already listed, for reference:
sequence,measurement,setting,value
GGCUAGAACUAGUGGAUCCCCCGGCGCCCGGCGGCUCGAGCCCGGGUAAGUAGAACGCGUCUGCAUGCCGCCGGGCGCCAUGCCUGCAGGUCGACUCUAGAAAACAUG,binding signal (log2 enrichment (interaction score)),[1],< -5.77
same,binding signal (log2 enrichment (interaction score)),[3],-5.77
same,binding signal (log2 enrichment (interaction score)),[4],-0.87
GGCUAGAACUAGUGGAUCCCCCGGCGCCCGGCGGCUCGAGCCCGGGUAAGUGGAAGAAGUCUGCAUGCCGCCGGGCGCCAUGCCUGCAGGUCGACUCUAGAAAACAUG,binding signal (log2 enrichment (interaction score)),[1],-4.99
